# In the supplement of paper PMC10849652:
# Sequences of proteins named here, by UniProt entry; tags and fusion partners are left off. A change or cut given only in a name is not applied to a line headed by its entry.
# UniProt P21580: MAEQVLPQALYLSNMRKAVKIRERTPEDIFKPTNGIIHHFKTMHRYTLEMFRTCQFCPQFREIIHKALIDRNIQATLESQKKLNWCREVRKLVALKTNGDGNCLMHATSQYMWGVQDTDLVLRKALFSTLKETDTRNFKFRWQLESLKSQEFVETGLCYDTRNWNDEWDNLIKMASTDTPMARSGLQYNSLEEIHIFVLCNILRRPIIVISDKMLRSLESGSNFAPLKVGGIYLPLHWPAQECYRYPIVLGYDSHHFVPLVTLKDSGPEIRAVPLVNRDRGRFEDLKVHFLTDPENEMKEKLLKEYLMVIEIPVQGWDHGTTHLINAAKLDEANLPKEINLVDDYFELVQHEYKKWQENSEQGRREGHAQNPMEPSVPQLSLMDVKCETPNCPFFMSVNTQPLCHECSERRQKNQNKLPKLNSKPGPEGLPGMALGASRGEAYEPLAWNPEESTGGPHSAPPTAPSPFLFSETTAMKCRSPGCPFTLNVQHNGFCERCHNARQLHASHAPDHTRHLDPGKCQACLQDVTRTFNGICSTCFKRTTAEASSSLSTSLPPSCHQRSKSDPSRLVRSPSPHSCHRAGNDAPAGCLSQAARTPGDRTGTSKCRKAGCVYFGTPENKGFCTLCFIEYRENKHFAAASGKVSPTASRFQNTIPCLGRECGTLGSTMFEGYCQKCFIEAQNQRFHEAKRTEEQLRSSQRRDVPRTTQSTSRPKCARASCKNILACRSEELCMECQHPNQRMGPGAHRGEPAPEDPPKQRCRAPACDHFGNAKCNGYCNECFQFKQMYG
# UniProt P19438, whole entry, looked up: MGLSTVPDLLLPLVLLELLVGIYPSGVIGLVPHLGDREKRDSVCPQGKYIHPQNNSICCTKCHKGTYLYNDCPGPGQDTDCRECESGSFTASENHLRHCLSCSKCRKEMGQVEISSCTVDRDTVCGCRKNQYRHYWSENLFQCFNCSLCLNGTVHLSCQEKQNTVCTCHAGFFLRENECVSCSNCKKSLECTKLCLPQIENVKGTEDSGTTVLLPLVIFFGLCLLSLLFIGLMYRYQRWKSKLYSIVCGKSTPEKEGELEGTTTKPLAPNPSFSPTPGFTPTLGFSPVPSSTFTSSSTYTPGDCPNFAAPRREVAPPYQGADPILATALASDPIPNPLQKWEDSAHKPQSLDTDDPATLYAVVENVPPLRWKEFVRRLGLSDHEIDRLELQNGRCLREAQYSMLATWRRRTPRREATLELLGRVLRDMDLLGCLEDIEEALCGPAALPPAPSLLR
# UniProt Q8NCS4: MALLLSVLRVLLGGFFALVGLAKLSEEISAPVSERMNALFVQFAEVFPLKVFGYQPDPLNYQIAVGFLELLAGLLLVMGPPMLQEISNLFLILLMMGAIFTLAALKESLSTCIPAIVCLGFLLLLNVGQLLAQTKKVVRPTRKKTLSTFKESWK
# UniProt Q96DC7: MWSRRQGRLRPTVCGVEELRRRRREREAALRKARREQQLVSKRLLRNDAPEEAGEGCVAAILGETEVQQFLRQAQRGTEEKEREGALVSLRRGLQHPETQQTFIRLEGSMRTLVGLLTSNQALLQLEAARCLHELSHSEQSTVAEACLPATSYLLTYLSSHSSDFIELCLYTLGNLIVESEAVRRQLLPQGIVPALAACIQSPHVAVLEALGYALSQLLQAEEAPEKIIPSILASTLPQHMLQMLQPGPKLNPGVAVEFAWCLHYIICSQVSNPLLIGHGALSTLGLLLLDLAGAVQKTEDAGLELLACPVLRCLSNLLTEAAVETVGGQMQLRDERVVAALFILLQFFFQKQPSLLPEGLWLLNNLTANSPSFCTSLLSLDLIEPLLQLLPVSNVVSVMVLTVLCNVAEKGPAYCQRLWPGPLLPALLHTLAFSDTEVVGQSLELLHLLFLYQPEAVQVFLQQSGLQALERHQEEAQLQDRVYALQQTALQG
# UniProt Q9NVA4: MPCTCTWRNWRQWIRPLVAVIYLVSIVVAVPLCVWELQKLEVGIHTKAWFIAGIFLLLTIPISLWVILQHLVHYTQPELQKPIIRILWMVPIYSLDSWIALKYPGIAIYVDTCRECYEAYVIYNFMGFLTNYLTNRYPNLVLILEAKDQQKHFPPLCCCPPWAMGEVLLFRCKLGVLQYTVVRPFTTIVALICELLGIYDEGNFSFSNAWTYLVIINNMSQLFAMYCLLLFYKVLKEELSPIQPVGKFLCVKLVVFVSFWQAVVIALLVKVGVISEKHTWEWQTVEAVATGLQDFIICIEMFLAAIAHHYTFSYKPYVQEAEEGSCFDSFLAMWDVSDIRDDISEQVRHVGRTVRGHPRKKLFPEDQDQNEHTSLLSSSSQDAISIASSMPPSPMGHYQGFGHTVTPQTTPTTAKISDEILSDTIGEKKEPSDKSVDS
# UniProt Q6UWJ1: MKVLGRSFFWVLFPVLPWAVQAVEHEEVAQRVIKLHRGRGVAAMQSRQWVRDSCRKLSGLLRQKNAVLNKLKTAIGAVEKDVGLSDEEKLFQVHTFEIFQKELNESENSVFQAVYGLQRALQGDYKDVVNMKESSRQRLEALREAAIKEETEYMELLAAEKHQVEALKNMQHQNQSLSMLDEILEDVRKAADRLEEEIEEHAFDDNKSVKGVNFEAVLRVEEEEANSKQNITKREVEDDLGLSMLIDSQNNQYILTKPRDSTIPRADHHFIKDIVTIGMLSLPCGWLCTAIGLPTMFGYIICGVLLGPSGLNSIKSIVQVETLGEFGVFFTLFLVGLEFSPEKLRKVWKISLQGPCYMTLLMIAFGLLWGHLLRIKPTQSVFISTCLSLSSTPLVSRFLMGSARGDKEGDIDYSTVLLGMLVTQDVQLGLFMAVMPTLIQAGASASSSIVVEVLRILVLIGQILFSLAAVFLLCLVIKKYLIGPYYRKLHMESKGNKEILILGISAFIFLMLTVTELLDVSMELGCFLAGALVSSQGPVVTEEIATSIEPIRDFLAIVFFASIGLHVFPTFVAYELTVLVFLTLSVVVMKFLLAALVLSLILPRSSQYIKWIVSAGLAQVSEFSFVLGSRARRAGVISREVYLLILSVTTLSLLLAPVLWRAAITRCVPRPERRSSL
# UniProt Q96Q45: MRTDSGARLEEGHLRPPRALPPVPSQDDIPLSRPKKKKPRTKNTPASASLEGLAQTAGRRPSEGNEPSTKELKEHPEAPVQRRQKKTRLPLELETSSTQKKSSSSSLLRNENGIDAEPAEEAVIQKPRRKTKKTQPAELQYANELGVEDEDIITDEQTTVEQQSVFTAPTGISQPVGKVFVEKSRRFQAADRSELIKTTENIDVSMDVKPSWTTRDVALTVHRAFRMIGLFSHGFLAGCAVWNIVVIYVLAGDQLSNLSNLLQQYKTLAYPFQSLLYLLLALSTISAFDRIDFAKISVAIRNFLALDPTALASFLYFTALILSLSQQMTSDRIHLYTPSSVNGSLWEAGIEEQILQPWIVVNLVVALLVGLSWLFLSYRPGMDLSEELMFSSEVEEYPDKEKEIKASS
# UniProt Q86XT9, whole entry, looked up: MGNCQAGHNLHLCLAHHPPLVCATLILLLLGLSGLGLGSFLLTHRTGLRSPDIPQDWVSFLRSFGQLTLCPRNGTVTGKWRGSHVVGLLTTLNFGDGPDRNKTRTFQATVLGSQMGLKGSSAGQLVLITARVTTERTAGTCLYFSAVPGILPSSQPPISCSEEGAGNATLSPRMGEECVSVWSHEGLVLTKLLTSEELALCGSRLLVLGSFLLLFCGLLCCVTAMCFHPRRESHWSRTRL
# UniProt Q9H6X4: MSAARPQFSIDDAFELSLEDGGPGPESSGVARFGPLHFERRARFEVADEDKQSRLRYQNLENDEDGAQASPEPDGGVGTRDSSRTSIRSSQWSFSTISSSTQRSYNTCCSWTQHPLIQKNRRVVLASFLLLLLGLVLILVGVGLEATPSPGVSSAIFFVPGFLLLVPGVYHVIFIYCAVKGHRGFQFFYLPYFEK
# UniProt A0PK00: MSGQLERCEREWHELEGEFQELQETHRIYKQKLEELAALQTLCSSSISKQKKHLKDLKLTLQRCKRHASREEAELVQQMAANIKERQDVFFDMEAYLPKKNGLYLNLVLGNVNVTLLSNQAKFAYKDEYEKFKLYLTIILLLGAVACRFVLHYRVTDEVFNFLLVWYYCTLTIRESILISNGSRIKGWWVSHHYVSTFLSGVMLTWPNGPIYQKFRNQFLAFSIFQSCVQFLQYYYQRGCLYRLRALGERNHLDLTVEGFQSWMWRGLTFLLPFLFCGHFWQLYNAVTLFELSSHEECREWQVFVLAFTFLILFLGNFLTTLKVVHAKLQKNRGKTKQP
# UniProt Q9BXS4: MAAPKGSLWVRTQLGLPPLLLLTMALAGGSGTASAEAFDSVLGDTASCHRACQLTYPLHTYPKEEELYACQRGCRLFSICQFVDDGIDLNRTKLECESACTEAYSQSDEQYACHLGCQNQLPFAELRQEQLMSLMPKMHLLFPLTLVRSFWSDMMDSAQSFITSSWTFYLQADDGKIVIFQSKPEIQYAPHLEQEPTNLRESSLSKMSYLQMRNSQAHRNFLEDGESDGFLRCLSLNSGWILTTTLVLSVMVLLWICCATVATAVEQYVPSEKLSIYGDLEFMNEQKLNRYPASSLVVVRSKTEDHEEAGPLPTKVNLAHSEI
# UniProt Q5SNT2: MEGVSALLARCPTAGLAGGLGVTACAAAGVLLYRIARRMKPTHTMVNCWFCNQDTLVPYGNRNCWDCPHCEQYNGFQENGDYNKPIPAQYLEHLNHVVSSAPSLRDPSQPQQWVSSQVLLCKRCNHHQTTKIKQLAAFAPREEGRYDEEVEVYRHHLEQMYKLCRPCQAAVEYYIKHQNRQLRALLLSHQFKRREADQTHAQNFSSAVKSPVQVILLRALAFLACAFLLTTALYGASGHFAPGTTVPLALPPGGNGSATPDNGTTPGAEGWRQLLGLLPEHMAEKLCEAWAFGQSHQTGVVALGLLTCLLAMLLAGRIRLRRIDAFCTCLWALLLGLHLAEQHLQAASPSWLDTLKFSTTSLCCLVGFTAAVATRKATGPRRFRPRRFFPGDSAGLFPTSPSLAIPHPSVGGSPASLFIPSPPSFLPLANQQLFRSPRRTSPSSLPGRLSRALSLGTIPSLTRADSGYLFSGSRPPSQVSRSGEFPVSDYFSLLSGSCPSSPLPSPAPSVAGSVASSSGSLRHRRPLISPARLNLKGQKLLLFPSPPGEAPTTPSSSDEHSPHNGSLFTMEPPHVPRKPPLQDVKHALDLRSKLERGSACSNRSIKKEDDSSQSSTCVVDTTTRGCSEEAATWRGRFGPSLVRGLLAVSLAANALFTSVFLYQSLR
# UniProt Q9BZW5, whole entry, looked up: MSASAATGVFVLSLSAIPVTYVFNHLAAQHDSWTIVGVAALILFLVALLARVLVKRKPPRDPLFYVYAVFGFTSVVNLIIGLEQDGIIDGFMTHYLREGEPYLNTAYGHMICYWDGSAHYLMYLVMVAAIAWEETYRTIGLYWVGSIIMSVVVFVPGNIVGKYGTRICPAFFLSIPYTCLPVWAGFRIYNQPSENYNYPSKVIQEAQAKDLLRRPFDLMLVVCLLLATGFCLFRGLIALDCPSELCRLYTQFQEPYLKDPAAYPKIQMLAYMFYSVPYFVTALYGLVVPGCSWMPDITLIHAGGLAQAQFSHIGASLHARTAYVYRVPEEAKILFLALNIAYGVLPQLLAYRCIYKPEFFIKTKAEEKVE
# UniProt O94876, whole entry, looked up: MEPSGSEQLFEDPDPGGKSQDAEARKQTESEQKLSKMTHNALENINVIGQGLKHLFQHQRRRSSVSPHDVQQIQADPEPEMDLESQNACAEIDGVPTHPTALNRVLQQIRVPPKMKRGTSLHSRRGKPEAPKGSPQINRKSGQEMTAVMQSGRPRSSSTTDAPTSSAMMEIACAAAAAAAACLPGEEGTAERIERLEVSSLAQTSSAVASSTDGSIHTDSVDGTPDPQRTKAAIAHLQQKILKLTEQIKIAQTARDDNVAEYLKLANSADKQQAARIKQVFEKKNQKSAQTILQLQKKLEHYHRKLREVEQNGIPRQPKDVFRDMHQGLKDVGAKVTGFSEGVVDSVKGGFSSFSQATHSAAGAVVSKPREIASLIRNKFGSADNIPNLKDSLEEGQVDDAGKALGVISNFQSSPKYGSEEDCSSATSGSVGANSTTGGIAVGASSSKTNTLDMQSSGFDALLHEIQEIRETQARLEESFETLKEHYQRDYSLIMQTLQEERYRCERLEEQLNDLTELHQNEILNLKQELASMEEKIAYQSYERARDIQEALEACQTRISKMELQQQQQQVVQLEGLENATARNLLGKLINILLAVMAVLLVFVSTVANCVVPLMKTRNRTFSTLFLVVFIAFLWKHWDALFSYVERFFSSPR
# UniProt Q96B96: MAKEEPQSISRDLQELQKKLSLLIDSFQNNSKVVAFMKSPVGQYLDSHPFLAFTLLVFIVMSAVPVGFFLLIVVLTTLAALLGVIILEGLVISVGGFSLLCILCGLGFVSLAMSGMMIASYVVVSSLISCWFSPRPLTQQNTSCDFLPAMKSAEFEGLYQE
# This is one part of the list.
# Compound: CN1CCC(CNc2ccc3ncc(-c4cccc(OC(F)(F)F)c4)n3n2)CC1
# Assay: log2 fold change, soluble protein after heating vs DMSO (PISA); higher = thermal stabilisation; K562 cells, 10 uM, 30 min; active = over 0.2 and 3.5 SD of the protein, either way, in both replicates (recomputed)
# Method in brief: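 Quantification of soluble protein used TMTpro 16plex LC-MS/MS, with channel sums equalised. Samples were the supernatant after 21,000xg for 90 min of pooled aliquots from K562 cells (2×10^6 cells/mL) treated with 10 μM compound for 30 min, heated for 3 min over 48°C-58°C, and extracted in PBS with 0.5% NP-40 at 4°C. Values, from duplicates, describe thermal stability against control samples on a log2 fold-change scale.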
row,Target,log2 fold change
1,TMPO (UniProt G5E972),inactive: -0.002
2,TNFAIP3 (UniProt P21580),inactive: -0.04
3,TNFRSF1A (UniProt P19438),inactive: -0.381
4,TMEM35B (UniProt Q8NCS4),inactive: 0.044
5,TMCO6 isoform 2 (UniProt Q96DC7),inactive: 0.159
6,TMEM184C (UniProt Q9NVA4),active: -0.492
7,TMCO3 (UniProt Q6UWJ1),inactive: -0.362
8,TMEM237 isoform 3 (UniProt Q96Q45),inactive: -0.03
9,TMEM219 (UniProt Q86XT9),inactive: -0.029
10,TMEM134 (UniProt Q9H6X4),inactive: -0.054
11,TMEM120B (UniProt A0PK00),inactive: 0.088
12,TMEM59 (UniProt Q9BXS4),inactive: 0.038
13,TMEM201 (UniProt Q5SNT2),inactive: -0.135
14,TM6SF1 (UniProt Q9BZW5),inactive: 0.067
15,TMCC1 (UniProt O94876),inactive: -0.024
16,TMEM131 (UniProt Q92545),inactive: -0.28
17,TMEM159 isoform 2 (UniProt Q96B96),inactive: 0.007
